Assay results taken from patent publication US20160279215A1, “NOVEL PEPTIDES AND COMBINATION OF PEPTIDES FOR USE IN IMMUNOTHERAPY AGAINST VARIOUS TUMORS” (immatics biotechnologies GmbH, priority 2015, published 2016).
For part of these data: For expression read-outs the peptide stands for its source gene, whose mRNA was measured; the gene is not named for every peptide.

Legend:
[1] = test system: source genes of the peptides (mRNA) in tumor and normal tissue; assay: Expression profiling of source genes by RNAseq (target coverage); set-up: species or system human; settings: share of tumors with more than 1.5-fold over-expression vs highest-expressing relevant normal tissue; for Target coverage for source genes, AML (%): acute myeloid leukemia; for Target coverage for source genes, BRCA (%): breast cancer; for Target coverage for source genes, CLL (%): chronic leukemia (CLL); for Target coverage for source genes, OSCAR (%): esophageal cancer incl. gastric-oesophageal junction; for Target coverage for source genes, MEL (%): melanoma; for Target coverage for source genes, OC (%): ovarian cancer; for Target coverage for source genes, SCLC (%): small cell lung cancer; for Target coverage for source genes, UBC (%): urinary bladder cancer; for Target coverage for source genes, UTC (%): uterine cancer; for Target coverage for source genes, GBC_CCC (%): gallbladder adenocarcinoma and cholangiocarcinoma; for Target coverage for source genes, NHL (%): non-Hodgkin lymphoma
[2] = Identification and label-free relative LC-MS quantitation of HLA-presented peptides on tumor and normal tissue samples (XPRESIDENT presentation profiles); set-up: species or system human; settings: for Entities of particular interest: entities where the peptide was over-presented on cancer samples compared to normal tissues; for Additional entities of particular interest (presentation of selected peptides across entities): tumor entities on which the HLA-presented peptide was found, entity abbreviations defined in the title of Table 4B

Substance | Target coverage for source genes, AML (%) [1] | Target coverage for source genes, BRCA (%) [1] | Target coverage for source genes, CLL (%) [1] | Target coverage for source genes, OSCAR (%) [1] | Target coverage for source genes, MEL (%) [1] | Target coverage for source genes, OC (%) [1] | Target coverage for source genes, SCLC (%) [1] | Target coverage for source genes, UBC (%) [1] | Target coverage for source genes, UTC (%) [1] | Entities of particular interest [2] | Additional entities of particular interest (presentation of selected peptides across entities) [2] | Target coverage for source genes, GBC_CCC (%) [1] | Target coverage for source genes, NHL (%) [1]
43: peptide found in CCR8 (gene looked up) (LLIPFTIFM; listed as Homo sapiens) [compound 43] | I (<19% over-expression = I) | II (20-49% = II) | I (<19% over-expression = I) | IV (>70% = IV) | II (20-49% = II) | I (<19% over-expression = I) | I (<19% over-expression = I) | II (20-49% = II) | I (<19% over-expression = I) | NSCLC, MEL, CRC, OC | SCLC, GBC_CCC, NHL |  | 
147: peptide found in CNR2 (gene looked up) (GLLSALENV; listed as Homo sapiens) [compound 147] | I (<19% over-expression = I) | I (<19% over-expression = I) | IV (>70% = IV) | I (<19% over-expression = I) | I (<19% over-expression = I) | I (<19% over-expression = I) | I (<19% over-expression = I) | I (<19% over-expression = I) | I (<19% over-expression = I) |  | CLL, NHL | I (<19% over-expression = I) | III (50-69% = III)
148: peptide found in CNR2 (gene looked up) (YLILSSHQL; listed as Homo sapiens) [compound 148] | I (<19% over-expression = I) | I (<19% over-expression = I) | IV (>70% = IV) | I (<19% over-expression = I) | I (<19% over-expression = I) | I (<19% over-expression = I) | I (<19% over-expression = I) | I (<19% over-expression = I) | I (<19% over-expression = I) |  | CLL, NHL | I (<19% over-expression = I) | III (50-69% = III)
152: peptide found in CXCR5 (gene looked up) (ILVTSIFFL; listed as Homo sapiens) [compound 152] | I (<19% over-expression = I) | I (<19% over-expression = I) | II (20-49% = II) | I (<19% over-expression = I) | I (<19% over-expression = I) | I (<19% over-expression = I) | I (<19% over-expression = I) | I (<19% over-expression = I) | I (<19% over-expression = I) |  | CLL, NHL | I (<19% over-expression = I) | II (20-49% = II)
156: peptide found in CYSLTR1 (gene looked up) (VILTSSPFL; listed as Homo sapiens) [compound 156] | I (<19% over-expression = I) | I (<19% over-expression = I) | II (20-49% = II) | I (<19% over-expression = I) | I (<19% over-expression = I) | I (<19% over-expression = I) | I (<19% over-expression = I) | I (<19% over-expression = I) | I (<19% over-expression = I) |  | CLL, BRCA, AML, NHL | I (<19% over-expression = I) | I (<19% over-expression = I)
158: peptide found in ERCC4 (gene looked up) (YLDPLWHQL; listed as Homo sapiens) [compound 158] | I (<19% over-expression = I) | I (<19% over-expression = I) | I (<19% over-expression = I) | I (<19% over-expression = I) | I (<19% over-expression = I) | I (<19% over-expression = I) | II (20-49% = II) | I (<19% over-expression = I) | I (<19% over-expression = I) | PC, OC | CLL, MEL, NHL | I (<19% over-expression = I) | I (<19% over-expression = I)
169: peptide found in HTR7 (gene looked up) (ALADLSVAV; listed as Homo sapiens) [compound 169] | I (<19% over-expression = I) | I (<19% over-expression = I) | I (<19% over-expression = I) | II (20-49% = II) | I (<19% over-expression = I) | I (<19% over-expression = I) | I (<19% over-expression = I) | III (50-69% = III) | I (<19% over-expression = I) |  | NSCLC, HCC, OSCAR, OC, UBC, UTC, GBC_CCC, MEL, AML | I (<19% over-expression = I) | I (<19% over-expression = I)
235: peptide found in CLSPN (gene looked up) (SLLNQPKAV; listed as Homo sapiens) [compound 235] | I (<19% over-expression = I) | I (<19% over-expression = I) | I (<19% over-expression = I) | I (<19% over-expression = I) | I (<19% over-expression = I) | II (20-49% = II) | II (20-49% = II) | I (<19% over-expression = I) | I (<19% over-expression = I) | GB, NSCLC, HCC, OC, MEL, CRC, PC, OSCAR | SCLC, UBC, UTC, BRCA, GBC_CCC, AML, NHL | I (<19% over-expression = I) | I (<19% over-expression = I)
246: peptide found in HSF2BP (gene looked up) (ALAGIVTNV; listed as Homo sapiens) [compound 246] | I (<19% over-expression = I) | II (20-49% = II) | I (<19% over-expression = I) | I (<19% over-expression = I) | I (<19% over-expression = I) | III (50-69% = III) | I (<19% over-expression = I) | II (20-49% = II) | I (<19% over-expression = I) | NSCLC, HCC, OC, MEL, RCC | GB, CLL, SCLC, BRCA, GBC_CCC, AML | II (20-49% = II) | I (<19% over-expression = I)
269: peptide found in FANCD2 (gene looked up) (GLLDCPIFL; listed as Homo sapiens) [compound 269] | I (<19% over-expression = I) | I (<19% over-expression = I) | I (<19% over-expression = I) | I (<19% over-expression = I) | I (<19% over-expression = I) | I (<19% over-expression = I) | I (<19% over-expression = I) | I (<19% over-expression = I) | I (<19% over-expression = I) | NSCLC, CRC, OSCAR, OC | CLL, UTC, AML, NHL | I (<19% over-expression = I) | I (<19% over-expression = I)
